Laboratory results taken from the supplement of paper PMC10849652.
The list shows a part of the results.

Chains of the proteins cited; added tags and fusions are not shown. Lines headed by an entry give the natural chain unless they say otherwise; changes in a name come on top.
UniProt Q9NZB8: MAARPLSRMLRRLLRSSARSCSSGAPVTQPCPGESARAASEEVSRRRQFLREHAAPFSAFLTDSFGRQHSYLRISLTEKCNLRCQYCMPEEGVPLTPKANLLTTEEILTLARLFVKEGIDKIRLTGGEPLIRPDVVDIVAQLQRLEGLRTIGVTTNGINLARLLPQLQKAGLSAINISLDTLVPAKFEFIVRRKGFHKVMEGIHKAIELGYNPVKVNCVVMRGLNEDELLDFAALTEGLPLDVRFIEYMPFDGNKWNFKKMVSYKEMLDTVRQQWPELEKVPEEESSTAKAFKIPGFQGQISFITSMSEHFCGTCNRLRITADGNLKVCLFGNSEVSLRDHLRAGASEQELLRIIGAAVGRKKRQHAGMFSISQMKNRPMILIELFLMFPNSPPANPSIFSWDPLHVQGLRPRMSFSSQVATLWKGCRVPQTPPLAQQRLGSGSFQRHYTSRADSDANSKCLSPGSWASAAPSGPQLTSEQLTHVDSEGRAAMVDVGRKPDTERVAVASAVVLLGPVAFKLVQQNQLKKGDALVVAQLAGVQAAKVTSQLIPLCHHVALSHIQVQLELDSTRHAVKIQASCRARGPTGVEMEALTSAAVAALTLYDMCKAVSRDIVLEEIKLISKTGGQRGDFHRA
UniProt Q8IY33: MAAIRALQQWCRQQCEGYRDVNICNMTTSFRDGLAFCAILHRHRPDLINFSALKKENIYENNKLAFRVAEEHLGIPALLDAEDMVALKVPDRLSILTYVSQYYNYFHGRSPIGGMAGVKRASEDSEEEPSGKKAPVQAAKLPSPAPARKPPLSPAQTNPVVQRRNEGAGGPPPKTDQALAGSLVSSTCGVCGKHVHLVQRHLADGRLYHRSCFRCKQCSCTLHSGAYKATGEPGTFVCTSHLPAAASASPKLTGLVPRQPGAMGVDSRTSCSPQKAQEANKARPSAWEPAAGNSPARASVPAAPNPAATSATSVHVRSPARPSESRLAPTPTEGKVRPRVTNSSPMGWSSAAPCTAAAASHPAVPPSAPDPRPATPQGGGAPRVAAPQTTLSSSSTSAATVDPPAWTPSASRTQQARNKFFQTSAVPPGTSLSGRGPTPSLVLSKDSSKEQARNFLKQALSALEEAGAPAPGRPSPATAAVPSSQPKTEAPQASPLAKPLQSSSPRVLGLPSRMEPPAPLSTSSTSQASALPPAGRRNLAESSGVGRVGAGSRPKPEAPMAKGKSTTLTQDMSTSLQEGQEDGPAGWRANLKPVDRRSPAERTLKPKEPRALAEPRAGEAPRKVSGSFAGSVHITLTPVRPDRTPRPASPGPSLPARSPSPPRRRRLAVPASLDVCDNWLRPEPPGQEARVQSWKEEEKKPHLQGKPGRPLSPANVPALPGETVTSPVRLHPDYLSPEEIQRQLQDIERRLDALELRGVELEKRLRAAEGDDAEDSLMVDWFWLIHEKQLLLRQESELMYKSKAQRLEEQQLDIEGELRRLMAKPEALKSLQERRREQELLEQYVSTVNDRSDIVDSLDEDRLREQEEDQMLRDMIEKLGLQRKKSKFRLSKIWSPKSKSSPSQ
UniProt Q9HC36: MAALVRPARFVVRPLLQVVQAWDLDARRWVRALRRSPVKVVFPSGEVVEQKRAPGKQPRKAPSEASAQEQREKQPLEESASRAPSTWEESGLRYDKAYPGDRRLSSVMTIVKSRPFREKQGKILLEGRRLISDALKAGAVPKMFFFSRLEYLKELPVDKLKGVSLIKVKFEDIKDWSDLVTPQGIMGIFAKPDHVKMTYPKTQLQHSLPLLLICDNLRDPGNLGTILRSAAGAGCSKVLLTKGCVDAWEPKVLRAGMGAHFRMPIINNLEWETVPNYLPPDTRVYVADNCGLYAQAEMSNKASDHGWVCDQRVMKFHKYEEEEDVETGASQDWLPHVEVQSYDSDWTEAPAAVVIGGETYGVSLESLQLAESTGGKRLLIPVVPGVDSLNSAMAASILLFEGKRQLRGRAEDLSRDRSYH
UniProt Q6IN84: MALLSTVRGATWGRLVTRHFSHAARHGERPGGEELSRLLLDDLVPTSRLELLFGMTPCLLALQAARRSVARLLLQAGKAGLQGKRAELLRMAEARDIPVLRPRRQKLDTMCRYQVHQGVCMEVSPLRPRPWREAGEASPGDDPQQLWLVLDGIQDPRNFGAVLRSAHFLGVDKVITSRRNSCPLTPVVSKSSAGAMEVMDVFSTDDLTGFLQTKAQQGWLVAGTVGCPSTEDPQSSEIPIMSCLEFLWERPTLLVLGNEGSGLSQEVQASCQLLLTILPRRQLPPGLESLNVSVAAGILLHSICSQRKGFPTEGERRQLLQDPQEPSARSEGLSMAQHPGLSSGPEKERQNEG
UniProt O94851, whole entry, looked up: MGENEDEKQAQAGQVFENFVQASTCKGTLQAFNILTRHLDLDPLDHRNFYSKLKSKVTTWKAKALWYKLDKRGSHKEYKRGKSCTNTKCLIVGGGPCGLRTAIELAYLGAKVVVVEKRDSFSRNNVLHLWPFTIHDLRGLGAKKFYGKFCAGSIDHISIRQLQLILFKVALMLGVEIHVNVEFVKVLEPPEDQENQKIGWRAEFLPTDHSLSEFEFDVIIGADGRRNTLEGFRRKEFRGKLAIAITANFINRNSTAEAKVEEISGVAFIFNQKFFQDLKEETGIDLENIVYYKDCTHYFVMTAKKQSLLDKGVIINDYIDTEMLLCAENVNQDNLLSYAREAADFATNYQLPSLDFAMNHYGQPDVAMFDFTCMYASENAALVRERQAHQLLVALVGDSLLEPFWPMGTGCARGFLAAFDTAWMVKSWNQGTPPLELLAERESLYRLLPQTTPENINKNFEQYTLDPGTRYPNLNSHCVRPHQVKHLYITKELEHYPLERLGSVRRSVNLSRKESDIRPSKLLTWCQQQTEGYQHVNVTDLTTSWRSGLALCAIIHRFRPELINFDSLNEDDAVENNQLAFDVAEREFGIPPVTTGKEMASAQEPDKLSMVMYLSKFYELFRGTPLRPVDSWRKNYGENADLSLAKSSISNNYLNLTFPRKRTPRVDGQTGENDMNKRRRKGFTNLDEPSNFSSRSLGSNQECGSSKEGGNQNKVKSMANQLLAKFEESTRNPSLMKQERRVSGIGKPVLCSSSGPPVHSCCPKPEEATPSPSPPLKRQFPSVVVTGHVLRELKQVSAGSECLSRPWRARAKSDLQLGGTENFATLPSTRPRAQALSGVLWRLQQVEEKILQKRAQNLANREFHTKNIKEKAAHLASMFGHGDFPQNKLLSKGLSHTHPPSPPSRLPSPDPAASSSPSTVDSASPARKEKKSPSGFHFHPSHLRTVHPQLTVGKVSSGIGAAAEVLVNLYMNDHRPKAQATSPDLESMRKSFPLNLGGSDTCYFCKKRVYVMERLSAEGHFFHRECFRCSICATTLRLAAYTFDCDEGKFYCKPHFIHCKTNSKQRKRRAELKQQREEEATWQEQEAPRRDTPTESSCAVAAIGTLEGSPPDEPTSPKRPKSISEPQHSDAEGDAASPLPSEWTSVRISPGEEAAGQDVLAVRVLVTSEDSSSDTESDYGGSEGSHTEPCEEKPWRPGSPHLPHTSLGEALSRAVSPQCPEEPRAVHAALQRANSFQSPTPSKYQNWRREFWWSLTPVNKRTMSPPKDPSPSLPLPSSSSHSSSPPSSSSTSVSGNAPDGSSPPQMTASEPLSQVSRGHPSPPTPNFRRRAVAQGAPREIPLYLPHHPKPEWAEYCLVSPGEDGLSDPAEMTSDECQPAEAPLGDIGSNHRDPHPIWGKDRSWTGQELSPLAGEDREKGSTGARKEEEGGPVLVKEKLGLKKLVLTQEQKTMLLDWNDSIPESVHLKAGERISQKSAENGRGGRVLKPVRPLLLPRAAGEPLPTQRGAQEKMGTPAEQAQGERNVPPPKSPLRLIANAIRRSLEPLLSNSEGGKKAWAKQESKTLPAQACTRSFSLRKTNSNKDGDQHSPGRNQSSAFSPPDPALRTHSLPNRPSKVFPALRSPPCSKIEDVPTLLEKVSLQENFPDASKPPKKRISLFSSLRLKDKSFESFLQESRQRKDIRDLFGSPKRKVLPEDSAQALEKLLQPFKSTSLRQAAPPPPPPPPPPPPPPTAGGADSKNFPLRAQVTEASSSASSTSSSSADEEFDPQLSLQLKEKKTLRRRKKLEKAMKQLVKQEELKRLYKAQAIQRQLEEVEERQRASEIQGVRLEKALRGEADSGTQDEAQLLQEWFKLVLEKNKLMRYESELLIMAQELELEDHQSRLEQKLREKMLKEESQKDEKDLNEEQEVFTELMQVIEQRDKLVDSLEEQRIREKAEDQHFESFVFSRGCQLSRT
UniProt Q567V2: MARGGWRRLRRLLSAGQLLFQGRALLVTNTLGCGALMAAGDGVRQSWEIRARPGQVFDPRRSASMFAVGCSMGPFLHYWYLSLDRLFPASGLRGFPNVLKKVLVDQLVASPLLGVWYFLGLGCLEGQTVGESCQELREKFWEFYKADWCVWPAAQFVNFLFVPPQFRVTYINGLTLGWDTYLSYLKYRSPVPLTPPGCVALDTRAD
UniProt Q8N3F8: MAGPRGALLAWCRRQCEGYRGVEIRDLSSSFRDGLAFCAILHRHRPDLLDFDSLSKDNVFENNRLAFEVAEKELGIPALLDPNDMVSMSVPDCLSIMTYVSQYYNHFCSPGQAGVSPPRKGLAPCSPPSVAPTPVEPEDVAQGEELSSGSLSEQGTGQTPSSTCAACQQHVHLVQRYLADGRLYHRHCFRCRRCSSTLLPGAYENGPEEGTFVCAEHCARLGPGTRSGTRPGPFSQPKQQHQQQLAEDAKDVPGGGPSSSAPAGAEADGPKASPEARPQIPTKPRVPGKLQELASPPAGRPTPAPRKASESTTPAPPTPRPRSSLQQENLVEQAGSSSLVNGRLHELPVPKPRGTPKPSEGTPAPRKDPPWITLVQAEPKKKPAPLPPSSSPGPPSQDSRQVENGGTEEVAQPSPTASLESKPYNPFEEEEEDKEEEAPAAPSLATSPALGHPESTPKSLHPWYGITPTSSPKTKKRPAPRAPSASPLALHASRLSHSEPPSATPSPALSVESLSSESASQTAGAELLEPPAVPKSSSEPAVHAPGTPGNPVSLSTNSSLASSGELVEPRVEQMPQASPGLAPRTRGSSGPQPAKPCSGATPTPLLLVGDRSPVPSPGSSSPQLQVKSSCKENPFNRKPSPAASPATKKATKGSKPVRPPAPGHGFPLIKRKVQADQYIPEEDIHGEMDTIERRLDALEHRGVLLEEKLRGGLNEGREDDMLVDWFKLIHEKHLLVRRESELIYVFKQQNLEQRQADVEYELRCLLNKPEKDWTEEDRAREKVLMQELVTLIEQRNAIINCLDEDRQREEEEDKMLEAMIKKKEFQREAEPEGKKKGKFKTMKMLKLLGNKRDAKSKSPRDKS

Each target was assayed with c1cn2cc(-c3ccc4cn[nH]c4c3)nc(Nc3ccc(N4CCOCC4)cc3)c2n1 [entospletinib] (assay: log2 fold change, soluble protein after heating vs DMSO (PISA); higher = thermal stabilisation; K562 cells, 10 uM, 30 min; active = over 0.2 and 3.5 SD of the protein, either way, in both replicates (recomputed)).
How it was run: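 K562 cells at 2×10^6 cells/mL were treated for 30 min with 10 μM compound, and aliquots were heated for 3 min over 48°C-58°C before pooling. Extraction used PBS with 0.5% NP-40 at 4°C, and soluble protein was the supernatant after 21,000xg for 90 min, measured by TMTpro 16plex LC-MS/MS with channel sums equalised. Thermal stability values, relative to control samples and from duplicates, are log2 fold changes.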

log2 fold change, inactive:
MOCS1 isoform 8 (UniProt Q9NZB8) 0.02, MICALL2 (UniProt Q8IY33) -0.001, MRPL12 (UniProt P52815) 0.06, MRM3 (UniProt Q9HC36) 0.105, MRPL39 (UniProt Q9NYK5) 0.073, MRM1 (UniProt Q6IN84) 0.094, MICAL2 (UniProt O94851) 0.077, MPV17L2 (UniProt Q567V2) 0.042, MICALL1 (UniProt Q8N3F8) 0.012
